Changes are numbered by the printed parent chain. No constants are given. Whether binding was seen depends on the method and setting. Some binding calls cover weakened binding; strength is not graded here. For some of these results: Where a sequence is shown, tags or fusion partners need not be part of it.

Test [1] deals with T1, recombinant human CD70 (Flag-TNC-CD70) (human) (UniProt P32970).
T1 sequence (looked up): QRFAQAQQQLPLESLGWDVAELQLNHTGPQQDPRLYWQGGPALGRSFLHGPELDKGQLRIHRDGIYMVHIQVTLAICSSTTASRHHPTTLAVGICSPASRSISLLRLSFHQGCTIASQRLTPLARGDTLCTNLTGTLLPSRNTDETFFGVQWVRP
Kind of test: inhibition ELISA: Flag-TNC-CD70 captured by anti-Flag mAb, Fab titrated, remaining binding of CD27-Fc detected.

In test [2] the target is T2, heat denatured recombinant CD70 (human) (UniProt P32970).
T2 sequence (looked up): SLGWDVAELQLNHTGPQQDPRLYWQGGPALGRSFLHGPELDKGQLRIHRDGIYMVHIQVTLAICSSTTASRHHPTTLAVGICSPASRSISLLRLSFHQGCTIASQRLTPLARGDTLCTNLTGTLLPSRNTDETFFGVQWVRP
Briefly: ELISA on coated heat denatured CD70; mAb 10 µg/ml.

Test [3] concerns the target T2, heat denatured recombinant CD70 (human). Kind of test: ELISA on coated heat denatured recombinant CD70, mAb at 10 µg/ml, anti-human IgG-HRP.
Test [4] has as its target T1, recombinant human CD70 (Flag-TNC-CD70) (human). Kind of test: Biacore, CM5 chip highly coated with CD70 (4000 RU); stored samples against a reference sample [panel 40F1 (slope].
The target is the same in test [5]. Briefly: ELISA; captured Flag-TNC-CD70.
Test [6] has as its target T3, rhesus CD70 on LCL8664 cells (rhesus) (UniProt F7GPA5).
T3 sequence: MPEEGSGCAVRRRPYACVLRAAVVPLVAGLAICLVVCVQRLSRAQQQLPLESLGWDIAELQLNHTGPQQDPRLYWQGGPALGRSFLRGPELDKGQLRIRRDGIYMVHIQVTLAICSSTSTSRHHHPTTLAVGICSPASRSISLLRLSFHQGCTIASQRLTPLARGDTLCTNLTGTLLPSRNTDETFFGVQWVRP
Kind of test: FACS on LCL8664 cells (FIG. 20).

Test [7] deals with T3, rhesus CD70 on LCL8664 cells (rhesus). Kind of test: flow cytometry on rhesus LCL8664 cells, goat anti human IgG1 FITC [panel Rhesus monkey].
For test [8], the target named is T1, recombinant human CD70 (Flag-TNC-CD70) (human). Kind of test: Biacore, CM5 chip highly coated with CD70 (4000 RU); stored samples against a reference sample [panel 35G2 (slope].
For test [9] the target is unchanged. Kind of test: Biacore, CM5 chip highly coated with CD70 (4000 RU); stored samples against a reference sample [panels 41D12: R0 in Biacore and 41D12 : slope in Biacore].
For test [10] the target is unchanged. Kind of test: binding ELISA (captured Flag-TNC-CD70, Fab detected with anti-myc-HRP; black bars) and inhibition ELISA (binding of CD27-Fc, m17; white bars); one sample per Fab, concentration not given.

B1: 5F4 Fab (Fab, V domains shown)
VH: EVQVQESGGGLVHPGGSLKLSCAASGFTFDTYAMSWVRQAPGKGLEWVSAISWSGGETFYAESMKGRFTISRNNAKNTLYLQMNSLKSEDTAVYYCARGMGLAEGLTDWGQGTQVTVSS
VL: QAVVTHPPSLSASPGSSVRLTCTLISGDNIGGYDISWYQQKTGSPPRYLLYYYSDSYKHQSSGVPSRFSGSKDASANAGLLLISGLQSEDEADYYCSAYKSGSYKAPVFGGGTHLTVLG
For the molecule B1, the binding entry in test [1] is given as “binds”.

B2: 5F4 chimeric llama-human mAb (antibody, human IgG1, V domains shown)
VH: B1 VH
VL: B1 VL
For the molecule B2, the binding result in test [2] and in test [3] was “binds” in each case.

B3: 6D5 (Fab, V domains shown)
VH: EVQLVQPGAELRKPGASVKVSCKASGYTFTSYYIDWVRQAPGQGLEWMGRIDPEDGGTKYAQKFQGRVTFTADASTSTAYVELSSLRSEDTAVYYCASRRRDFDYWGQGTQVTVSS
VL: QSALTQPSAVSVSLGQTARITCQGGNARFSSFAWYQQKPGQAPVQVIYYNTNRPSGIPARFSGSSSGGAATLTISGAQAEDEADYYCQSYESGNYVFGGGTTLTVLG
Consider B3, for which the binding entry in test [1] was “binds”.

B4: 19G10 Fab (Fab, V domains shown)
VH: EVQLQESGGGVVQPGGSLRLSCAASGFTFDDYAMSWVRQAPGKGLEWVSSIYMYDSSTYYADSVKGRFTISTDNAKNTVYLQMNSLKSEDTAVYYCAKDINRSYGSSWSHFGPIFSSWGQGTQVTVSS
VL: NFMLTQPSAVSVSLGQTARITCQGGYYTHWYQQKPGQAPVLVIYVNNNRPSGIPERFSGSSSGNTATLTISGAQAEDEAAYYCQSGSSSTIPVFGGGTKLTVLG
For B4, the binding result in test [1] is “binds”.

B5: 24B6 Fab (Fab, V domains shown)
VH: B4 VH
VL: B4 VL with N1Q, F2P, M3V, V45I, S61I, A75V, A80D
For B5, the binding entry in test [1] was “binds”.

B6: 40F1 mAb (full-length human IgG1, HEK293) (antibody, V domains shown)
VH: EVQLVESGGGLVQPGGSLRLSCAASGFTFSVYYMNWVRQAPGKGLEWVSDINNEGGATYYADSVKGRFTISRDNSKNSLYLQMNSLRAEDTAVYYCARDAGYSNHVPIFDSWGQGTQVTVSS
VL: QAVVTQEPSFSVSPGGTVTLTCGLKSGSVTSDNFPTWYQQTPGQAPRLLIYNTNTRHSGVPDRFSGSILGNKAALTITGAQADDEAEYFCALFISNPSVEFGGGTQLTVLG
For B6, the binding result in test [4] was “binds”.

B7: ARGX-110 (non-fucosylated 41D12 human IgG1) (antibody, V domains shown)
VH: B6 VH with A57T, Q117L
VL: B6 VL with F10L, S11T
On to B7, for which the binding entry in test [5], in test [6], in test [2], in test [7] and in test [3] was “binds” in each case.

B8: 35G2 mAb (full-length human IgG1, HEK293) (antibody, V domains shown)
VH: B6 VH with A57T, S75A, S78T, R87K, A88P, Q117L
VL: B6 VL with A2T, D32T, T55S, E87D
Take B8: the binding entry in [8] was “binds”.

B9: 41D12 mAb (full-length human IgG1, HEK293) (antibody, V domains shown)
VH: B6 VH with A57T, Q117L
VL: B6 VL with F10L, S11T
Consider B9, for which the binding entry in [9] is on record as “binds”.

B10: 57B6 chimeric llama-human mAb (antibody, human IgG1, V domains shown)
VH: QLQLVESGGGLVQPGGSLRLSCAASGFSFSHYAMSWVRQAPGKGLEWVSGDNTYDGGTRYQDSVKGRFTISRDNGKNTLYLQMNSLKPEDTAVYYCAKDTGRGIMGEYGMDYWGKGTLVTVSS
VL: QTVVTQEPSLSVSPGGTVTLTCGLKSGSVTSSNYPAWYQQTPGQAPRLLIYNTNSRHSGVPSRFSGSISGNKAALTITGAQPEDEADYYCALYMGSGSANAMFGGGTHLTVLG
Take B10: the binding entry in test [2] and in [3] was “binds” each time.

B11: 45A12 (Fab, V domains shown)
VH: EVQLVESGGGLVQPGGSLRLSCAASGFTFSAYYMNWVRQAPGKGLEWISDINNEGYETYYADSVKGRFTISRDNAKNTLTLQMDSLKPEDTARYYCVRDAGYSNHVQIFDSWGQGTQVIVAS
VL: QAVVTQEPSLSVSPGGTVTLTCGLSSGSATSGNYPEWYQQTPGQAPRLIIYNTASRHSGVPGRFSGSISGNKAALTITGAQPEDEADYYCLLYMGGSDFNFVFGGGTKLTVLG
For the molecule B11, in test [10], the binding entry is “binds”.

B12: 45B12 Fab (Fab, V domains shown)
VH: B11 VH
VL: QAVLTQPSSVSVSLGQTAKITCQGGNLGLYGANWYQQNPGRAPILLIYGDNYRPLGIPERFTISKSGGTATLTIDGAQAEDESDYYCQSADYSGNSVFGGGTKLTVLG
In the case of B12, in test [10], the binding result is recorded as “binds”.

B13: 45B6 (Fab, V domains shown)
VH: B11 VH
VL: B10 VL with T2A, K25S, A36D, A99N, A101V, M102V, H108E
Take B13: in [10], the binding result is on record as “binds”.

B14: 9G2 Fab (Fab, V domains shown)
VH: QVQLVESGGGLMQPGGSLRLSCAASGFTFSSSAMSWVRQAPGKGLEWVSSIYSDSSYTYYADSVKSRFTISTDNAKNTLYLQMNSLKPDDTAVYYCAGSSDYEGSFASWGQGTQVTVSS
VL: QSVVTQPPSLSASPGSSVRLTCTLSSGNSVGNYDISWYQQKAGSPPRYLLYYYSDSVKHQGSGVPSRFSGSSDASANAGLLLISGLQPEDEADYYCSAYKSGSHVFGGGTKLTVLG
Turning to B14, the binding entry in test [1] was “binds”.

B15: 9G2 chimeric llama-human mAb (antibody, human IgG1, V domains shown)
VH: B14 VH
VL: B14 VL
With B15, the binding entry in test [2] and in test [3] was “binds” throughout.

The record behind these values is patent publication US20150266963A1.
